Data on 22 targets can be found in the supplement of paper PMC11006884.

By UniProt entry, the sequences of proteins in these tests, tags left out. Where a name states a change or a piece, a line headed by the entry shows the natural chain unless it says otherwise.
UniProt O15294: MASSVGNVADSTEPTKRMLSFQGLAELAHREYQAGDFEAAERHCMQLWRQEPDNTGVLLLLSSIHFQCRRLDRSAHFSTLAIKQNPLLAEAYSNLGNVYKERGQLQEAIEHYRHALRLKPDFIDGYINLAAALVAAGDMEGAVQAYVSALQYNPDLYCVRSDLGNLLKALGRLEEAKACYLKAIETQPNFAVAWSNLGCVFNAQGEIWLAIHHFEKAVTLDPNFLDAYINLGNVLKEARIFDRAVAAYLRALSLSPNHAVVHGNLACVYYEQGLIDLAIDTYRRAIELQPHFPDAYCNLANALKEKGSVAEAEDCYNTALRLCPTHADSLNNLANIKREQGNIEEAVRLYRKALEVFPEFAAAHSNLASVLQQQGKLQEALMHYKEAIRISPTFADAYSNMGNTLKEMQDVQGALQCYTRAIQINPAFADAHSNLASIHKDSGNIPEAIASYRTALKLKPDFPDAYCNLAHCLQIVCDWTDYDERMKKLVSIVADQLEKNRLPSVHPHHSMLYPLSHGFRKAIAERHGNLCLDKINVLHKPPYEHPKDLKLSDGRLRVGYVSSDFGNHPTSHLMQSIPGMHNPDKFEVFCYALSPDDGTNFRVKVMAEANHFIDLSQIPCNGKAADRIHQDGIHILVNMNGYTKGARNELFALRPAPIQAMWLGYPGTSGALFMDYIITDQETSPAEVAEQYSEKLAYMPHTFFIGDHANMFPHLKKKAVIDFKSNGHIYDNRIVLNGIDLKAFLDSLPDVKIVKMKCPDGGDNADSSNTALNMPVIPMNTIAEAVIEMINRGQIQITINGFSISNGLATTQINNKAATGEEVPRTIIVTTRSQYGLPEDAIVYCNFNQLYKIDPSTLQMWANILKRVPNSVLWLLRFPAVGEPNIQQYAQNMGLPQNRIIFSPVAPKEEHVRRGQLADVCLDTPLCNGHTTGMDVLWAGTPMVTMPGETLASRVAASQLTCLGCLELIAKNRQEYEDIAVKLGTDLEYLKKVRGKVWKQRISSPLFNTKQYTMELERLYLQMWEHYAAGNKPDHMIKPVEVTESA
UniProt O14713: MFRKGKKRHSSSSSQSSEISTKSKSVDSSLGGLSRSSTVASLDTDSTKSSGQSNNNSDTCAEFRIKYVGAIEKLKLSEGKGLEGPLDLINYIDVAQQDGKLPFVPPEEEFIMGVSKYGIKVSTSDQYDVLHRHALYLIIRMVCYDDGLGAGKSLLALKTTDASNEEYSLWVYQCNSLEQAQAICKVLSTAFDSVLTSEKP
UniProt O14950, whole entry: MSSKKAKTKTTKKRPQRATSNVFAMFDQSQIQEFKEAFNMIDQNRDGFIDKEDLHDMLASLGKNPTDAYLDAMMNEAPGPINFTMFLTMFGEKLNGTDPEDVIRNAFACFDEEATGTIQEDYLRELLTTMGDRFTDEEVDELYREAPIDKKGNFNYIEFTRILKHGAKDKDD
UniProt O14929: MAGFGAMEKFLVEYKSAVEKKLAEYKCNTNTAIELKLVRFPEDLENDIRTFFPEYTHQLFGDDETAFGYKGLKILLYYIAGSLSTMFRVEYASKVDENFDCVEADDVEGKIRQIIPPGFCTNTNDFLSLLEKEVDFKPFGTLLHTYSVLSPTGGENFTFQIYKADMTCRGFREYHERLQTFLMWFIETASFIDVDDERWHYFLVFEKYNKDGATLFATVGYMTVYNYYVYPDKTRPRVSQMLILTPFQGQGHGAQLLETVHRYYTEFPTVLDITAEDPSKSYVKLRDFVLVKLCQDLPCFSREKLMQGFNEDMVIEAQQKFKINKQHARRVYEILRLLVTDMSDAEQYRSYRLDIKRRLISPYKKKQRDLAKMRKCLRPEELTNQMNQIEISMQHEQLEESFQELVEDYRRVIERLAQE
UniProt O14893: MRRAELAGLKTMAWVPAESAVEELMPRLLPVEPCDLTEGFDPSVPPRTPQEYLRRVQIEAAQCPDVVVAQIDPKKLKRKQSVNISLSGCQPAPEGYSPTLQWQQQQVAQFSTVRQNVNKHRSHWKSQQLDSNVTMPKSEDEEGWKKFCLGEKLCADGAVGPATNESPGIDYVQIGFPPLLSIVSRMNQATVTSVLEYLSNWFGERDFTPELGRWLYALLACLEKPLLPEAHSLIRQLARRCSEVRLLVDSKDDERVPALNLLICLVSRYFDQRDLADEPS
UniProt O00567: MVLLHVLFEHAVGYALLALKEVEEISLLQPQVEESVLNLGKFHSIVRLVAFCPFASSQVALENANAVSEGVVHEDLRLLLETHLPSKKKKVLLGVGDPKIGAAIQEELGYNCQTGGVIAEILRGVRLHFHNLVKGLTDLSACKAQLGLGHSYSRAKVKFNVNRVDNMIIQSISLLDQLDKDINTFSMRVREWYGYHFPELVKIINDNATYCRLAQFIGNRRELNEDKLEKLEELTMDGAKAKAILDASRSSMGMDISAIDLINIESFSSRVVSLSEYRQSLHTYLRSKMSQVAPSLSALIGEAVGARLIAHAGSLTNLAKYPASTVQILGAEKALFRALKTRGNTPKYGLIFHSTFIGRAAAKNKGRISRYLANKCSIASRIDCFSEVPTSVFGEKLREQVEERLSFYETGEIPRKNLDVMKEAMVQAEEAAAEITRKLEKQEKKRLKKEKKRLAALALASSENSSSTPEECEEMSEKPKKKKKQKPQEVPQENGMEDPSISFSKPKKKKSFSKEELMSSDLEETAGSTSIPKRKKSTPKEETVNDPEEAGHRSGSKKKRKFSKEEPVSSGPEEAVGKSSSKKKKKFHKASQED
UniProt O14618: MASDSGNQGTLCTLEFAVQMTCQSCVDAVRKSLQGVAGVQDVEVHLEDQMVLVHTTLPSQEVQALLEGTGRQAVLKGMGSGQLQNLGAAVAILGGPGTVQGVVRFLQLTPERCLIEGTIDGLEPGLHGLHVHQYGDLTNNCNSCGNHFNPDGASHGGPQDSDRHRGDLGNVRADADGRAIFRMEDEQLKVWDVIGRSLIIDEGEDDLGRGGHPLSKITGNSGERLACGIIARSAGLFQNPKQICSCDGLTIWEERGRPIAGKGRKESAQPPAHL
UniProt O43149: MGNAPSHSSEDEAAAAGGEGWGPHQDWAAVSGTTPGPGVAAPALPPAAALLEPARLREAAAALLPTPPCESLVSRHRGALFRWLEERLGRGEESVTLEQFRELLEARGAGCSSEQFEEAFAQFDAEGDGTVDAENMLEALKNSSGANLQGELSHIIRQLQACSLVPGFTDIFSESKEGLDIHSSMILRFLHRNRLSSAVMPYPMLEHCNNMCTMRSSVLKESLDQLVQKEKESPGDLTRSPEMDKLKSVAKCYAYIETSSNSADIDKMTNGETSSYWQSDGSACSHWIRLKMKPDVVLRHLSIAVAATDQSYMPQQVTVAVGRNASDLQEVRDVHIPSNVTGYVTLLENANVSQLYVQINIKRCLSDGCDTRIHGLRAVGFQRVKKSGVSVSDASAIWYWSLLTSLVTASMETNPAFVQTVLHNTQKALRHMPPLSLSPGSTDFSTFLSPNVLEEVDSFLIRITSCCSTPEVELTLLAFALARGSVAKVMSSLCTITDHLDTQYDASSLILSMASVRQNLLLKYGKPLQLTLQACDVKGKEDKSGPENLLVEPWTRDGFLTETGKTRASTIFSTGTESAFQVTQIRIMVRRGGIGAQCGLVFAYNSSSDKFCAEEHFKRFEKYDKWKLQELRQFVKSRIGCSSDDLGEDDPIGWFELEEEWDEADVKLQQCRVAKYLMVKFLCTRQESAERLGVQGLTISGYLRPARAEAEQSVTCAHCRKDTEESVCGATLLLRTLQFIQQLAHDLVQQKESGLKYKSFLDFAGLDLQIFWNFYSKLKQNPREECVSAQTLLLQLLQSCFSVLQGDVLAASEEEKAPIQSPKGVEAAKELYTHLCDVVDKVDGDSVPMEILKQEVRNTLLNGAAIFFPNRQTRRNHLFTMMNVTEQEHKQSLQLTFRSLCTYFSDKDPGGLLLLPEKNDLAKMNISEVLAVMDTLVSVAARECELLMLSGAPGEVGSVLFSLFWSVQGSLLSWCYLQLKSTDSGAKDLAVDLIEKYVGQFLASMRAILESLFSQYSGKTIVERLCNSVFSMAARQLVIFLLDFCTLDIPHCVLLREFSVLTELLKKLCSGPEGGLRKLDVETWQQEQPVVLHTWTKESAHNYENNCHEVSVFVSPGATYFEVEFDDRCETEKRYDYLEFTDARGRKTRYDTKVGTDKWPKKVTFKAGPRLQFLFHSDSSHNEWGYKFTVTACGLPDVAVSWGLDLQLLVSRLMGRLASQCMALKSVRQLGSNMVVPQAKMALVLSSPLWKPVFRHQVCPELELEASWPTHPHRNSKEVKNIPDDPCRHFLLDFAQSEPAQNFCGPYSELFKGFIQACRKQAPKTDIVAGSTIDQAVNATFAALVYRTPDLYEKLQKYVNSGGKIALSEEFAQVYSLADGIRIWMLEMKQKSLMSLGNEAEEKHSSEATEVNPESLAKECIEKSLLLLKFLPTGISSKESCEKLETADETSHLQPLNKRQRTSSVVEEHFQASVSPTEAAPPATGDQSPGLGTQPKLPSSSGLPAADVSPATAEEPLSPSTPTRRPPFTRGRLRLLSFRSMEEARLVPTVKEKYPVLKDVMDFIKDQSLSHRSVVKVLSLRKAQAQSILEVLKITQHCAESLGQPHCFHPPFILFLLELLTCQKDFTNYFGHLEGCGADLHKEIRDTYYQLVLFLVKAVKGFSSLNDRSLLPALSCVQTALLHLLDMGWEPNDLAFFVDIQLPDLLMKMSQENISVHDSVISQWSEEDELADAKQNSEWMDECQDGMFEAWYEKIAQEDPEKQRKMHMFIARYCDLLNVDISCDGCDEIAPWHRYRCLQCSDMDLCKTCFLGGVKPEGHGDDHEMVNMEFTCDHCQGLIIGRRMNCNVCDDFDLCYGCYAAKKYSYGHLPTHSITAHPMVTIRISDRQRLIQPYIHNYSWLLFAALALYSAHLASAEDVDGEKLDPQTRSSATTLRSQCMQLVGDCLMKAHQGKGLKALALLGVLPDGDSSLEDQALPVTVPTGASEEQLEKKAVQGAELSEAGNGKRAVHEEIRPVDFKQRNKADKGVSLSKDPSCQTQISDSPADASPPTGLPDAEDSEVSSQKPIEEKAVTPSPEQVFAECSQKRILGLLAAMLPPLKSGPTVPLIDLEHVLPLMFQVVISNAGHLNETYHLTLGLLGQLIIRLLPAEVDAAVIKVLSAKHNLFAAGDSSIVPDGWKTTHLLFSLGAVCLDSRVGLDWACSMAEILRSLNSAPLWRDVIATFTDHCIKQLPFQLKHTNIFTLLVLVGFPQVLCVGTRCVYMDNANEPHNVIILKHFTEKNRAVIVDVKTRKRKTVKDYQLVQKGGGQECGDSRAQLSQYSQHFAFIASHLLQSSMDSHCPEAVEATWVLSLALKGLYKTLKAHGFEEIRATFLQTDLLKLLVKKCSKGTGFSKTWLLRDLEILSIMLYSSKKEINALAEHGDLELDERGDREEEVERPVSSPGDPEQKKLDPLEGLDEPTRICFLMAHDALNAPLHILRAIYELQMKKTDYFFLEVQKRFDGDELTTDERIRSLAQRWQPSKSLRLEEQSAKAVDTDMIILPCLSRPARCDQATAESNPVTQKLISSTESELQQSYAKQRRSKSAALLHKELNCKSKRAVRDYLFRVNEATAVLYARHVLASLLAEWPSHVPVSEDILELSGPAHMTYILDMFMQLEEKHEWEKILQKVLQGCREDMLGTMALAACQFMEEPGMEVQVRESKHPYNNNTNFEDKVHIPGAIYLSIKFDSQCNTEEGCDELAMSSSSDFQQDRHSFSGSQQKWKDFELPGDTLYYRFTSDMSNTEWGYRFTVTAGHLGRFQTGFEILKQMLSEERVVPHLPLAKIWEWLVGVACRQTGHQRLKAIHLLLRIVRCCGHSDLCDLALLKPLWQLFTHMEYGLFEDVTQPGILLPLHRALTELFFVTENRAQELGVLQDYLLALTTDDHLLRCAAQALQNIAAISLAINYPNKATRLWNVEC
UniProt O15446, whole entry, looked up: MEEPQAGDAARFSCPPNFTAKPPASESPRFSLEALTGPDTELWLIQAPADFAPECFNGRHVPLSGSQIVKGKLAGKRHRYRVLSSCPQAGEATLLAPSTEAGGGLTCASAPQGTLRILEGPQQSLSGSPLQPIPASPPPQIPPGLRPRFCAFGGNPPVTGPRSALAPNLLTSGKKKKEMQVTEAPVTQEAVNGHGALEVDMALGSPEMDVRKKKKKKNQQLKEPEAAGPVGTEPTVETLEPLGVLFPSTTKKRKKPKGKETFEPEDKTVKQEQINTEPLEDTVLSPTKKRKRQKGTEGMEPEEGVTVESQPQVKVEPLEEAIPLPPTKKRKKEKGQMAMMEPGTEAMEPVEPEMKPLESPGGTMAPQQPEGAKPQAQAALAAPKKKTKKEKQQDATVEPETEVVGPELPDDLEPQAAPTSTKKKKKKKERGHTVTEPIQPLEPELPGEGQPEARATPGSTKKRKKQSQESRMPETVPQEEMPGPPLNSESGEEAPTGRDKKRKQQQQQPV

This is a selection; strong and weak results do not stand in their true shares.

Compound in the assay: COC(=O)C#Cc1ccccc1 [methyl 3-phenylpropiolate]
Nature of the assay: log2 ratio of iodoacetamide-alkyne labeling of the cysteine site, DMSO over compound (competition); higher = stronger covalent engagement of the cysteine by the compound, active = 1 or more. To be noted: 500 µM; treatment time 1 h; system: HEK293T cell lysate. The essentials: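 Electrophile (500 µM) or vehicle was added to HEK293T lysate (2 mg/mL) for 1 h at ambient temperature before iodoacetamide alkyne labelling (1 h) and click coupling to sCIP-TMT reagents. After pooling, overnight trypsin digestion at 37 °C, streptavidin enrichment and acid elution, peptides were measured by Orbitrap Eclipse LC-MS/MS with FAIMS and quantified in FragPipe. Each cysteine's log2 competition ratio compares mean control-channel with mean compound-channel reporter intensity, control over compound. Data came from duplicate channels across three replicates, excluding cysteines quantified in only one replicate.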
PHGDH C281 (UniProt O43175): the “log2 ratio of iodoacetamide-alkyne labeling” value (“log2 ratio” below) was inactive: 0.43.

On to EI24 C24 (UniProt O14681), for which the “log2 ratio” value was inactive: 0.163. Regarding KMT2D C58 (UniProt O14686), the “log2 ratio” value was inactive: 0.263. Turning to OGT C620 (UniProt O15294), the “log2 ratio” value is active: 1.35. Consider NDUFAB1 C140 (UniProt O14561), for which the “log2 ratio” value is inactive: 0.304. The figure for MRPS12 C93 (UniProt O15235) is inactive: 0.317. In the case of IRS4 C381 (UniProt O14654), the “log2 ratio” value is inactive: 0.737. Under ITGB1BP1 C60 (UniProt O14713) stands inactive: 0.357; under PHGDH C111 (UniProt O43175), inactive: 0.00502. As for POLRMT C119 (UniProt O00411), the “log2 ratio” value was active: 1.22.

For UniProt O14950_C109, the “log2 ratio” value is inactive: 0.246.

On to HAT1 C120 (UniProt O14929), for which the “log2 ratio” value is inactive: 0.32. Consider GEMIN2 C34 (UniProt O14893), for which the “log2 ratio” value was inactive: 0.0131. Turning to UniProt O00567_C142, the “log2 ratio” value is inactive: 0.498. Turning to PPM1G C13 (UniProt O15355), the “log2 ratio” value is inactive: 0.0286. UniProt O14618_C244: the “log2 ratio” value is inactive: -0.0274. For KMT2D C392 (UniProt O14686), the “log2 ratio” value is inactive: 0.382. EIF3D C196 (UniProt O15371): the “log2 ratio” value was inactive: 0.719. Consider IRS4 C545 (UniProt O14654), for which the “log2 ratio” value is inactive: 0.932. Turning to ZZEF1 C1259 (UniProt O43149), the “log2 ratio” value is inactive: 0.747. Take PSMA7 C63 (UniProt O14818): the “log2 ratio” value was inactive: 0.114.

Turning to CD3EAP C107 (UniProt O15446), the “log2 ratio” value is inactive: 0.723.
